Data taken from publication PMC11140966.
Results are given in words; binding and its absence hold for the method and conditions named. In cells and extracts the contact can be indirect. Some binding calls cover weakened binding; strength is not graded here.

Chains of the proteins cited; added tags and fusions are not shown.
UniProt P56959: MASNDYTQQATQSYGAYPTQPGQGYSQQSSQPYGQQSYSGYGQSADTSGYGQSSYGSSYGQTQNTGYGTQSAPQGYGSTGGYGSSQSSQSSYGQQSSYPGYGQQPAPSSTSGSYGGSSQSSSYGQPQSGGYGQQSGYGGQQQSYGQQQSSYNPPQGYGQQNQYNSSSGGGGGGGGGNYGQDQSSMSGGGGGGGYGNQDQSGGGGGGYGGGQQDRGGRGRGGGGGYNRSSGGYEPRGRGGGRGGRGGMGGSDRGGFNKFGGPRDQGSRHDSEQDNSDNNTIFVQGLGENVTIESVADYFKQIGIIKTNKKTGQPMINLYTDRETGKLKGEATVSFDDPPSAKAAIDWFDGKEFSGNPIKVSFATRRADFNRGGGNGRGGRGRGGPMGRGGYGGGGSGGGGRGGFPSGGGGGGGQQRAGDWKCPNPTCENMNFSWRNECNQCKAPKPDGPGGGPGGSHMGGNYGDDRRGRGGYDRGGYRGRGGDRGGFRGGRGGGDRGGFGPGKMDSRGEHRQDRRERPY

Target: FUS (fused in sarcoma/translocated in liposarcoma), endogenous in embryonic mouse ovary (mouse (endogenous in embryonic mouse ovary)) (UniProt P56959)
Experiment: co-IP; endogenous proteins in embryonic mouse ovary lysates; antibody on Protein A/G magnetic beads, 1 h at room temperature; immunoblotting; IgG as negative control; also lysates of cultured ovaries transfected with control or AD-Hfm1i (FUS with FBXW11 increased, FUS with MDM2 not changed significantly)

binding	Binder
binds	FBXW11, endogenous in embryonic mouse ovary (protein, UniProt Q5SRY7 1-542) MEPDSVIEDKTIELMCSVPRSLWLGCANLVESMCALSCLQSMPSVRCLQISNGTSSVIVSRKRPSEGNYQKEKDLCIKYFDQWSESDQVEFVEHLISRMCHYQHGHINSYLKPMLQRDFITALPEQGLDHIAENILSYLDARSLCAAELVCKEWQRVISEGMLWKKLIERMVRTDPLWKGLSERRGWDQYLFKNRPTDGPPNSFYRSLYPKIIQDIETIESNWRCGRHNLQRIQCRSENSKGVYCLQYDDDKIISGLRDNSIKIWDKSSLECLKVLTGHTGSVLCLQYDERVIVTGSSDSTVRVWDVNTGEVLNTLIHHNEAVLHLRFSNGLMVTCSKDRSIAVWDMASATDITLRRVLVGHRAAVNVVDFDDKYIVSASGDRTIKVWSTSTCEFVRTLNGHKRGIACLQYRDRLVVSGSSDNTIRLWDIECGACLRVLEGHEELVRCIRFDNKRIVSGAYDGKIKVWDLQAALDPRAPASTLCLRTLVEHSGRVFRLQFDEFQIISSSHDDTILIWDFLNVPPSAQNETRSPSRTYTYISR
binds	Helicase for meiosis 1 (HFM1), endogenous in embryonic mouse ovary (protein, UniProt D3Z4R1 1-1434) MPKSDDCFFSMDNLFFSSPDETENFPVKEKSLDWFLPPAPLISEIPDIQELEEEIESYKLLGKGKMPRMLTSNLKIINEDTNCISPTQKIHFSYNVHEQDYLNLGGSNNNDMSHVAGKLMYGSSQKYKNHMGAKSPSARSSPGDTKLHDVAEDRQGTSAFKKRLSRTCDSEHDCDYADGSLNLSSHISPVKLTQTKISKENAWTCSNSKQKRQYSTNKFKANDAFSASGIGKDIFKAPSFPAASQPHDIQGITPNGLGSLKAVTEIPAKFRNIFKEFPYFNYIQSKAFDDLLYTDRNFVICAPTGSGKTVVFELAITRLLMEVPLPWLNMKIVYMAPIKALCSQRFDDWKEKFGPVGLNCKELTGDTVMDDLFEIQHANIIITTPEKWDSVTRKWRDNSFIQLVRLFLIDEVHVIKDENRGPTLEVVVSRMKTVQSLSRDLESASPVPVRFVAVSATIPNAEDIAEWLSDGERPAVCLKMDESHRPVKLQKVVLGFPCSSSQTEFKFDLALNYKVYSVIRTYSDQKPTLVFCSTRKGVQQAASVLVKDAKFIISVEQKLRLQKSAYSIRDSKLKDTLVYGVGYHHAGMELSDRKLVEGLFTSGDLPVLFTTSTLAMGMNMPAHLVVIKSTMHYSGGVFEEYSETDILQMIGRAGRPQFDTTATAVIMTRLSTREKYVQMLACNDTVESSLHRHLIEHLNAEIVLHTITDVNIALDWIRSTMLYIRALKNPSHYGFSSGLNKDGIEAKLQELCLKNLKDLSSLDLIKMDEDVNFKPTEAGRLMAWYYITFETVKKFCAISGKETLLDLISMISSCNEFLDVQLRISEKRILNTLNKDPNRITIRFPMAERIKTREMKVNCLIQAQLGCIPIQDFALTQDTVKIFRNGSRIARWLSDFVAAQEKKFAVLLNSVILTKCFKCKLWENSKHVSKQLDKIGISLSNTMVNAGLTSFKKIEEANARELELILNRHPPFGTQIKEAVAHLPKYELEVEQIARYSDIKAEILVTIILRNFEQLQTKRTAPDFHYATLIIGDADNQVVFKHKIMDSVLLKSGNWVKKIDVKRALISEDLSINLISSDYVGLDIHQKFTVFYFGPRKFVNETAMERSSETDISHSDYSGRATATGSSKGMATCKKPGNRECHHHCKNKHACGHDCCKIGVAQKPEVKESAMSSYLSDLKSRDAVSSLPLAKRLKIQMNKSQNVDLKEFGFTPRPSLSSISRSEYLNTPELSILEQRNQHEIYGKVQQGPSEYRDKEVLGVNLELGNEVWDDFDDESLIEVMSLSADAEKMAASGFGDTRDSSLGGSKLPFQKSSSRFQRDNSNSFASSPGKPDAYLRDCSRSSFGLSSVAEIPQRAENASLANLQERRPLTLSPVIERMCFAHSKKTPQSPKFKEVDIFIGNSGSKKEIDLSKYYPDDAAEEMKALLGIFNGIF
